# Results: the supplement of paper PMC12067093, “Discovery and optimisation of a covalent ligand for TRIM25 and its application to targeted protein ubiquitination” (Chemical Science, 2025)
# The list shows a part of the results.
# Compound: CC1Cc2ccccc2N1C(=O)C1CCCN(C1)C(=O)CCl (mixture of isomers) [TRIM25 ligand 11 (diastereomer mixture)]
# Experiment: probe-labelled cysteine peptide fold change vs DMSO (competition) (log2 fold change); higher = less target engagement (more negative = stronger competition)
# Details: THP-1, incubation time: 4 h
# 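Note: competitive chemoproteomic profiling in live THP-1 cells with an iodoacetamide desthiobiotin (IA-DTB) probe, comparing probe-labelled peptide intensities in compound-treated cells against DMSO-treated controls.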
Target,probe-labelled cysteine peptide fold change (10 µM),probe-labelled cysteine peptide fold change (50 µM)
BOD1L1_Q8NFC6_2384_HKVPMPSLIAENNCR (UniProt Q8NFC6),-0.222,-0.258
BICD2_Q8TD16_544_KVSDVAGETQGSLSVAQDELVTFSEELANLYHHVCMCNNETPNR (UniProt Q8TD16),-0.349,-0.194
BPTF_Q12830_1471_CELVSGESTGNCEDRLPVK (UniProt Q12830),-0.109,-0.152
BAZ2A_Q9UIF9_888_DVPSLGVLQEGLLCQGDSLGEVQDLLVR (UniProt Q9UIF9),-0.142,0.0943
BIRC6_Q9NR09_390_ISCFGSGSCPHFLAAATK (UniProt Q9NR09),0.166,-0.00212
BOD1L1_Q8NFC6_2164_CAESLQPVAAAVEER (UniProt Q8NFC6),0.0625,-0.315
BIN2_Q9UBW5_496_ENENIHNQNPEELCTSPTLMTSQVASEPGEAK (UniProt Q9UBW5),-0.432,-0.111
BAZ1A_Q9NRL2_893+898_WCFYSSCEQLDQLIEALNSR (UniProt Q9NRL2),0.0252,-0.174
BAG6_P46379_345+349_CNLACTPPR (UniProt P46379),-0.182,-0.296
B4GALT1_P15291_172_DCVSPHK (UniProt P15291),-0.0797,-0.0194
BAZ1B_Q9UIG0_1228+1231_AFHLFCLRPALYEVPDGEWQCPACQPATAR (UniProt Q9UIG0),0.129,0.0156
BAZ1B_Q9UIG0_1348_CEEILHK (UniProt Q9UIG0),0.0165,-0.00188
BAZ2A_Q9UIF9_1037_SEVEMEGPEECLGR (UniProt Q9UIF9),-0.337,-0.201
BLM_P54132_120_EVVCTTQNTPTVK (UniProt P54132),0.0344,-0.13
AVL9_Q8NBF6_409_GYLCLPYMALQQHHLLSDVTVR (UniProt Q8NBF6),0.0355,0.118
BAZ1B_Q9UIG0_1202_LILCDECNK (UniProt Q9UIG0),0.0442,0.201
BAG5_Q9UL15_166_ICAVQEIIEDCMK (UniProt Q9UL15),0.124,0.182
BAHD1_Q8TBE0_764_TVPEDTDPELVFLCR (UniProt Q8TBE0),0.0489,0.0905
ATXN7L3_Q14CW9_226_CPQHTDEQRR (UniProt Q14CW9),-0.0529,0.0377
BIRC6_Q9NR09_463_RPTLAWLEDSSSCSDIPK (UniProt Q9NR09),0.218,0.0776
BLM_P54132_318_CLSTLK (UniProt P54132),-0.0683,-0.0053

Target,probe-labelled cysteine peptide fold change (10 µM),probe-labelled cysteine peptide fold change (50 µM)
BAG5_Q9UL15_360_LFACEEHPSHK (UniProt Q9UL15),0.146,-0.201
ATRX_P46100_220_DSDGMDEQCR (UniProt P46100),-0.165,0.07
BIRC6_Q9NR09_739_FAEEENLCIDSITPCADGIHLLVGLR (UniProt Q9NR09),-0.498,-0.0824
BPNT1_O95861_243_ASAYVFASPGCK (UniProt O95861),-0.0394,-0.259
BAG1_Q99933_272_DLQAEALCK (UniProt Q99933),-0.00206,0.0986
AXL_P30530_588_SELEDFLSEAVCMK (UniProt P30530),0.132,0.0716
BLM_P54132_444_YRPDSLDGPMEGDSCPTGNSMK (UniProt P54132),-0.0625,-0.266
BAZ1A_Q9NRL2_586_RGGFDATDDACMELR (UniProt Q9NRL2),0.0933,0.03
BIRC6_Q9NR09_2067_HLCISGTPK (UniProt Q9NR09),0.0333,0.185
BICRA_Q9NZM4_1382_KPLGTAPHCPR (UniProt Q9NZM4),0.0732,0.165
ATXN7L3_Q14CW9_226_CPQHTDEQR (UniProt Q14CW9),-0.0455,0.00938
BIRC6_Q9NR09_613_TQGESISEQGSTDNESCTNSELNSPLVR (UniProt Q9NR09),-0.0519,-0.309
BOD1L1_Q8NFC6_2599_CEQDLTIK (UniProt Q8NFC6),-0.198,-0.265
BOD1L1_Q8NFC6_2694_NGEILAPPESLCGGKPSGIAELQR (UniProt Q8NFC6),-0.201,-0.158
BOD1L1_Q8NFC6_1618_EGESGECAVAESEDR (UniProt Q8NFC6),-0.0437,-0.13
BAZ1B_Q9UIG0_1213_AFHLFCLR (UniProt Q9UIG0),-0.0578,-0.0252
BAZ1B_Q9UIG0_1393+1395_CSCGSYR (UniProt Q9UIG0),0.0934,0.07
BABAM2_Q9NXR7_254_IEHALGGSSALHIPAFPGGGCLIDYVPQVCHLLTNK (UniProt Q9NXR7),0.0304,0.0849
AURKA_O14965_393_EVLEHPWITANSSKPSNCQNK (UniProt O14965),-0.187,-0.235
BLMH_Q13867_326_DGEAVWFGCDVGK (UniProt Q13867),-0.0858,-0.0492
BAG6_P46379_349_CNLACTPPR (UniProt P46379),0.0312,0.0685

Target,probe-labelled cysteine peptide fold change (10 µM),probe-labelled cysteine peptide fold change (50 µM)
BIRC6_Q9NR09_381_GEHTQNVPLSVTLATSPAQFPCTDGTDR (UniProt Q9NR09),0.0945,-0.0337
BAZ2B_Q9UIF8_1960_GCHTYCHRPK (UniProt Q9UIF8),0.0324,-0.0424
B2M_P61769_45_SNFLNCYVSGFHPSDIEVDLLK (UniProt P61769),0.0228,-0.192
ATXN1L_P0C7T5_568_TTQLFSLPCHR (UniProt P0C7T5),0.099,-0.087
BOD1L1_Q8NFC6_1554_QSEVALPCTSIEADEGLIIGTHSR (UniProt Q8NFC6),-0.0709,-0.164
BAZ1A_Q9NRL2_970_SSNAYDPSQMCAEK (UniProt Q9NRL2),0.0359,-0.213
BIRC6_Q9NR09_4666_VCLSILNTWHGRPEEK (UniProt Q9NR09),0.0292,-0.000835
ATRX_P46100_1718_ALVDPGPDFVVCDEGHILK (UniProt P46100),0.145,0.0955
BOD1L1_Q8NFC6_285_SEEFSDLPCPVEEIK (UniProt Q8NFC6),0.0806,0.0982
BIRC6_Q9NR09_4813+4828_LPCPEGLDPDTDDAPEVCR (UniProt Q9NR09),0.483,-0.0936
BCAT2_O15382_342_EVFGSGTACQVCPVHR (UniProt O15382),-0.148,-0.0849
BIRC6_Q9NR09_4183_KHAQCLLR (UniProt Q9NR09),-0.0367,-0.134
BCLAF1_Q9NYF8_688_LRCDSADLR (UniProt Q9NYF8),-0.15,-0.12
BORCS6_Q96GS4_356_TLEVLEALCK (UniProt Q96GS4),0.0111,0.13
BABAM1_Q9NWV8_294_YEVALAGPALELHNCMAK (UniProt Q9NWV8),0.131,0.114
BCL2L2_Q92843_29_GYVCGAGPGEGPAADPLHQAMR (UniProt Q92843),0.24,-0.281
BPNT1_O95861_100_QPCPSQYSAIKEEDLVVWVDPLDGTK (UniProt O95861),-0.359,0.0995
BIRC6_Q9NR09_3673_RHHVPQQCNK (UniProt Q9NR09),-0.0858,-0.242
BOLA2B_Q9H3K6_59_LVNACLAEELPHIHAFEQK (UniProt Q9H3K6),-0.108,0.00725
BDH2_Q9BUT1_93_LDVLFNVAGFVHHGTVLDCEEK (UniProt Q9BUT1),0.228,0.217
BOD1L1_Q8NFC6_1947_DTDICSSAK (UniProt Q8NFC6),-0.013,-0.235

# Look-ups from the entries so far.
# BAG5_Q9UL15_360_LFACEEHPSHK (UniProt Q9UL15) – probe-labelled cysteine peptide fold change (50 µM): -0.201
# BPNT1_O95861_243_ASAYVFASPGCK (UniProt O95861) – probe-labelled cysteine peptide fold change (10 µM): -0.0394
# B4GALT1_P15291_172_DCVSPHK (UniProt P15291) – probe-labelled cysteine peptide fold change (10 µM): -0.0797
# BAZ1A_Q9NRL2_893+898_WCFYSSCEQLDQLIEALNSR (UniProt Q9NRL2) – probe-labelled cysteine peptide fold change (10 µM): 0.0252
# BOLA2B_Q9H3K6_59_LVNACLAEELPHIHAFEQK (UniProt Q9H3K6) – probe-labelled cysteine peptide fold change (10 µM): -0.108
# BAZ2A_Q9UIF9_888_DVPSLGVLQEGLLCQGDSLGEVQDLLVR (UniProt Q9UIF9) – probe-labelled cysteine peptide fold change (10 µM): -0.142

# (next part)

Target,probe-labelled cysteine peptide fold change (10 µM),probe-labelled cysteine peptide fold change (50 µM)
BIN1_O00499_47_ADETKDEQFEQCVQNFNK (UniProt O00499),-0.18,-0.0534
ATXN10_Q9UBB4_95_NACIECSVNQNSIR (UniProt Q9UBB4),0.00675,0.27
BAZ1A_Q9NRL2_764_QEQINCVTREPLTADEEEALKQEHQR (UniProt Q9NRL2),-0.357,-0.181
BCOR_Q6W2J9_1044_DSEMCK (UniProt Q6W2J9),-0.179,-0.488
BLMH_Q13867_269_ICLVNDPRPQHK (UniProt Q13867),0.137,0.13
BAZ1A_Q9NRL2_404_PREDMECDDLK (UniProt Q9NRL2),-0.115,-0.16
BLM_P54132_799_FVIDEAHCVSQWGHDFR (UniProt P54132),0.0622,0.0557
BCL2L12_Q9HB09_266_ACPGPPPPSPEPLAR (UniProt Q9HB09),-0.118,-0.397
BDP1_A6H8Y1_2039_IVHECQELSSPVITTSPASFEENK (UniProt A6H8Y1),-0.286,-0.339
BAZ1B_Q9UIG0_1006_ELDELLNCLHPQGIR (UniProt Q9UIG0),0.0226,0.00108
BARGIN_Q6ZT62_631_CGMTTVLTLTGVSR (UniProt Q6ZT62),0.013,0.0424
BMP2K_Q9NSY1_912_KVNVQECHAVGPEAHTIPGYPK (UniProt Q9NSY1),-0.348,-0.373
BCAT1_P54687_338_EMFGSGTACVVCPVSDILYK (UniProt P54687),0.15,0.0428
BPTF_Q12830_1357_LASADDIGTLICK (UniProt Q12830),0.0298,-0.193
BOP1_Q14137_404_DLQPFPTCQALVYR (UniProt Q14137),-0.171,-0.237
ATR_Q13535_1430_AQDSAAYAIQELLSIYDCR (UniProt Q13535),0.122,-0.141
BIRC6_Q9NR09_2910_AVCGEMTR (UniProt Q9NR09),0.109,0.0225
BCR_P11274_737_HVFLFTDLLLCTK (UniProt P11274),0.0719,0.203
BLOC1S6_Q9UL45_95_ECHSMLDINALFAEAK (UniProt Q9UL45),0.0396,0.0528
AXL_P30530_852_DSCSCLTAAEVHPAGR (UniProt P30530),0.197,-0.0355
